{"source": "PubChem BioAssay AID743121 (NCATS, 2013)", "test": "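Knock-downs that sensitise breast cancer cells to camptothecin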 (primary screen)", "cell system": "MDA-MB-231 cells, a human breast cancer line", "knock-down reagent": "single siRNA against human genes, 20 nM siRNA (0.8 pmol per well)", "timing": "120 h (drug added 48 h after transfection, read 72 h later)", "conditions": "camptothecin 20 nM (about EC30) for 72 h; vehicle 0.1% DMSO in parallel plates", "detection": "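Cell viability by ATP luminescence (CellTiter-Glo) as % of non-targeting siRNA wells, and the log2 ratio of viability without drug over viability with camptothecin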", "reading the numbers": "log2 vehicle/camptothecin viability: higher = stronger sensitisation to camptothecin", "hit rule": "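Active genes have an RSA gene-level p-value below 0.001, computed from the ratios of their separate siRNAs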", "note": "The deposit covers about 26,000 reagents; below is a part drawn at random. Over the whole deposit, 167 (0.63%) are marked active. 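Calls are per gene from RSA p-values that are not deposited; an individual active-marked siRNA can sensitise only weakly.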 The numbers tell different reagents against one gene apart. Further read-outs or replicates are left out here."}
{"Gene":"CYP4A11 (cytochrome P450 family 4 subfamily A member 11)","reagent":1,"log2 vehicle/camptothecin viability":-0.246,"activity call":"inactive"}
{"Gene":"CYP4A11 (cytochrome P450 family 4 subfamily A member 11)","reagent":2,"log2 vehicle/camptothecin viability":0.258,"activity call":"inactive"}
{"Gene":"CYP4A11 (cytochrome P450 family 4 subfamily A member 11)","reagent":3,"log2 vehicle/camptothecin viability":-0.053,"activity call":"inactive"}
{"Gene":"CYP4A11 (cytochrome P450 family 4 subfamily A member 11)","reagent":4,"log2 vehicle/camptothecin viability":-0.0379,"activity call":"inactive"}
{"Gene":"IL4 (interleukin 4)","reagent":1,"log2 vehicle/camptothecin viability":-0.156,"activity call":"inactive"}
{"Gene":"IL4 (interleukin 4)","reagent":2,"log2 vehicle/camptothecin viability":-0.215,"activity call":"inactive"}
{"Gene":"IL4 (interleukin 4)","reagent":3,"log2 vehicle/camptothecin viability":-0.218,"activity call":"inactive"}
{"Gene":"IL4 (interleukin 4)","reagent":4,"log2 vehicle/camptothecin viability":-0.291,"activity call":"inactive"}
{"Gene":"PAEP (progestagen associated endometrial protein)","reagent":1,"log2 vehicle/camptothecin viability":-0.364,"activity call":"inactive"}
{"Gene":"PAEP (progestagen associated endometrial protein)","reagent":2,"log2 vehicle/camptothecin viability":-0.302,"activity call":"inactive"}
{"Gene":"PAEP (progestagen associated endometrial protein)","reagent":3,"log2 vehicle/camptothecin viability":-0.0823,"activity call":"inactive"}
{"Gene":"PAEP (progestagen associated endometrial protein)","reagent":4,"log2 vehicle/camptothecin viability":0.453,"activity call":"inactive"}
{"Gene":"MED12 (mediator complex subunit 12)","reagent":1,"log2 vehicle/camptothecin viability":-0.277,"activity call":"inactive"}
{"Gene":"MED12 (mediator complex subunit 12)","reagent":2,"log2 vehicle/camptothecin viability":-0.155,"activity call":"inactive"}
{"Gene":"MED12 (mediator complex subunit 12)","reagent":3,"log2 vehicle/camptothecin viability":-0.366,"activity call":"inactive"}
{"Gene":"MED12 (mediator complex subunit 12)","reagent":4,"log2 vehicle/camptothecin viability":-0.0469,"activity call":"inactive"}
{"Gene":"EVI5L (ecotropic viral integration site 5 like)","reagent":1,"log2 vehicle/camptothecin viability":-0.268,"activity call":"inactive"}
{"Gene":"EVI5L (ecotropic viral integration site 5 like)","reagent":2,"log2 vehicle/camptothecin viability":-0.225,"activity call":"inactive"}
{"Gene":"EVI5L (ecotropic viral integration site 5 like)","reagent":3,"log2 vehicle/camptothecin viability":-0.256,"activity call":"inactive"}
{"Gene":"EVI5L (ecotropic viral integration site 5 like)","reagent":4,"log2 vehicle/camptothecin viability":-0.325,"activity call":"inactive"}
{"Gene":"EXT1 (exostosin glycosyltransferase 1)","reagent":1,"log2 vehicle/camptothecin viability":-0.0344,"activity call":"inactive"}
{"Gene":"EXT1 (exostosin glycosyltransferase 1)","reagent":2,"log2 vehicle/camptothecin viability":-0.118,"activity call":"inactive"}
{"Gene":"EXT1 (exostosin glycosyltransferase 1)","reagent":3,"log2 vehicle/camptothecin viability":-0.513,"activity call":"inactive"}
{"Gene":"EXT1 (exostosin glycosyltransferase 1)","reagent":4,"log2 vehicle/camptothecin viability":0.0958,"activity call":"inactive"}
{"Gene":"PROK1 (prokineticin 1)","reagent":1,"log2 vehicle/camptothecin viability":-0.228,"activity call":"inactive"}
{"Gene":"PROK1 (prokineticin 1)","reagent":2,"log2 vehicle/camptothecin viability":-0.391,"activity call":"inactive"}
{"Gene":"PROK1 (prokineticin 1)","reagent":3,"log2 vehicle/camptothecin viability":0.161,"activity call":"inactive"}
{"Gene":"PROK1 (prokineticin 1)","reagent":4,"log2 vehicle/camptothecin viability":0.863,"activity call":"inactive"}
{"Gene":"BCL2 (BCL2 apoptosis regulator)","reagent":1,"log2 vehicle/camptothecin viability":-0.336,"activity call":"inactive"}
{"Gene":"BCL2 (BCL2 apoptosis regulator)","reagent":2,"log2 vehicle/camptothecin viability":-0.344,"activity call":"inactive"}
{"Gene":"BCL2 (BCL2 apoptosis regulator)","reagent":3,"log2 vehicle/camptothecin viability":-0.349,"activity call":"inactive"}
{"Gene":"BCL2 (BCL2 apoptosis regulator)","reagent":4,"log2 vehicle/camptothecin viability":-0.0457,"activity call":"inactive"}
{"Gene":"FBXO7 (F-box protein 7)","reagent":1,"log2 vehicle/camptothecin viability":0.803,"activity call":"inactive"}
{"Gene":"FBXO7 (F-box protein 7)","reagent":2,"log2 vehicle/camptothecin viability":-0.118,"activity call":"inactive"}
{"Gene":"FBXO7 (F-box protein 7)","reagent":3,"log2 vehicle/camptothecin viability":-0.151,"activity call":"inactive"}
{"Gene":"FBXO7 (F-box protein 7)","reagent":4,"log2 vehicle/camptothecin viability":0.0802,"activity call":"inactive"}
{"Gene":"CMA1 (chymase 1)","reagent":1,"log2 vehicle/camptothecin viability":-0.12,"activity call":"inactive"}
{"Gene":"CMA1 (chymase 1)","reagent":2,"log2 vehicle/camptothecin viability":-0.14,"activity call":"inactive"}
{"Gene":"CMA1 (chymase 1)","reagent":3,"log2 vehicle/camptothecin viability":-0.141,"activity call":"inactive"}
{"Gene":"ALS2CL (ALS2 C-terminal like)","reagent":1,"log2 vehicle/camptothecin viability":0.384,"activity call":"inactive"}
{"Gene":"ALS2CL (ALS2 C-terminal like)","reagent":2,"log2 vehicle/camptothecin viability":-0.549,"activity call":"inactive"}
{"Gene":"ALS2CL (ALS2 C-terminal like)","reagent":3,"log2 vehicle/camptothecin viability":-0.126,"activity call":"inactive"}
{"Gene":"ALS2CL (ALS2 C-terminal like)","reagent":4,"log2 vehicle/camptothecin viability":0.222,"activity call":"inactive"}
{"Gene":"KDM1A (lysine demethylase 1A)","reagent":1,"log2 vehicle/camptothecin viability":-0.0825,"activity call":"inactive"}
{"Gene":"KDM1A (lysine demethylase 1A)","reagent":2,"log2 vehicle/camptothecin viability":0.0184,"activity call":"inactive"}
{"Gene":"KDM1A (lysine demethylase 1A)","reagent":3,"log2 vehicle/camptothecin viability":0.209,"activity call":"inactive"}
{"Gene":"KDM1A (lysine demethylase 1A)","reagent":4,"log2 vehicle/camptothecin viability":-0.164,"activity call":"inactive"}
